Results published in the supplement of paper PMC11438910.
The list shows a part of the results. Most of these values are background signal.

What was measured:
Assay in all cases: fluorescence intensity of antibody binding to polysaccharide-coupled beads; higher = stronger binding
[1] = molecular target: pneumococcal polysaccharide Pn23F
[2] = molecular target: pneumococcal polysaccharide Pn24A
[3] = molecular target: pneumococcal polysaccharide Pn24B
[4] = molecular target: pneumococcal polysaccharide Pn24F
[5] = molecular target: pneumococcal polysaccharide Pn25A
[6] = molecular target: pneumococcal polysaccharide Pn25F
[7] = molecular target: pneumococcal polysaccharide Pn27
[8] = molecular target: pneumococcal polysaccharide Pn28A
[9] = molecular target: pneumococcal polysaccharide Pn28F
[10] = molecular target: pneumococcal polysaccharide Pn29
[11] = molecular target: pneumococcal polysaccharide Pn3
[12] = molecular target: pneumococcal polysaccharide Pn31
[13] = molecular target: pneumococcal polysaccharide Pn32A
[14] = molecular target: pneumococcal polysaccharide Pn32F
[15] = molecular target: pneumococcal polysaccharide Pn33A
[16] = molecular target: pneumococcal polysaccharide Pn33B
[17] = molecular target: pneumococcal polysaccharide Pn33C
[18] = molecular target: pneumococcal polysaccharide Pn33D
[19] = molecular target: pneumococcal polysaccharide Pn33F
[20] = molecular target: pneumococcal polysaccharide Pn34
[21] = molecular target: pneumococcal polysaccharide Pn35A
[22] = molecular target: pneumococcal polysaccharide Pn35B
[23] = molecular target: pneumococcal polysaccharide Pn35C
[24] = antibody concentration 2.8593 ng/mL
[25] = antibody concentration 15.2894 ng/mL
[26] = antibody concentration 81.7561 ng/mL
[27] = antibody concentration 437.17 ng/mL
[28] = antibody concentration 2337.65 ng/mL
[29] = antibody concentration 12500 ng/mL
[30] = antibody concentration 0.1 ng/mL
[31] = antibody concentration 0.534724 ng/mL

B1: 4-173.4 (protein)
chain 1: QLQLQESGPGLVKPSETLSLTCAVSGGSISSHYWSWIRQPPGKGLEWIGRFSAGGGSTDYNPSLKSRVTISTDTSKNQFTLNLNSVTAADTAVYYCTRGSYTSDYWGQGVLVTVSS
chain 2: QAALTQSPSVSGSPGQSVTISCTGTSSDIGGYIRVSWYQQHPGKAPKLMIYEVSKRPSGVSDRFSGSKSGNTASLTISGLQAEDEADYYCFSYARGDTVLLGGGTRLTVL
B1 showed a fluorescence intensity [1, 24] of 18.2 MFI, a fluorescence intensity [1, 25] of 18 MFI and a fluorescence intensity [1, 26] of 18.5 MFI. For the same binder, the fluorescence intensity [1, 27] was 21 MFI, the fluorescence intensity [1, 28] was 23.5 MFI and the fluorescence intensity [1, 29] was 30.5 MFI. It also gave a fluorescence intensity [2, 30] of 16.5 MFI, a fluorescence intensity [2, 31] of 15.5 MFI and a fluorescence intensity [2, 24] of 16.5 MFI. For the same binder, the fluorescence intensity [2, 25] was 14.5 MFI, the fluorescence intensity [2, 26] was 14 MFI and the fluorescence intensity [2, 27] was 15.5 MFI. The fluorescence intensity [2, 28] was 17 MFI, the fluorescence intensity [2, 29] was 20.5 MFI and the fluorescence intensity [3, 30] was 17.2 MFI. For the same binder, the fluorescence intensity [3, 31] was 17 MFI, the fluorescence intensity [3, 24] was 17.5 MFI and the fluorescence intensity [3, 25] was 16.8 MFI. It also gave a fluorescence intensity [3, 26] of 17.5 MFI, a fluorescence intensity [3, 27] of 18.5 MFI and a fluorescence intensity [3, 28] of 19.5 MFI. For the same binder, the fluorescence intensity [3, 29] was 30.5 MFI, the fluorescence intensity [4, 30] was 17 MFI and the fluorescence intensity [4, 31] was 18.5 MFI. The fluorescence intensity [4, 24] was 17 MFI, the fluorescence intensity [4, 25] was 15.5 MFI and the fluorescence intensity [4, 26] was 16 MFI. The fluorescence intensity [4, 27] was 17 MFI, the fluorescence intensity [4, 28] was 23.8 MFI and the fluorescence intensity [4, 29] was 30.5 MFI. For the same binder, the fluorescence intensity [5, 30] was 23.5 MFI, the fluorescence intensity [5, 31] was 24 MFI and the fluorescence intensity [5, 24] was 25 MFI. For the same binder, the fluorescence intensity [5, 25] was 23.5 MFI, the fluorescence intensity [5, 26] was 24.5 MFI and the fluorescence intensity [5, 27] was 28.5 MFI. For the same binder, the fluorescence intensity [5, 28] was 29 MFI, the fluorescence intensity [5, 29] was 36.5 MFI and the fluorescence intensity [6, 30] was 31 MFI. The fluorescence intensity [6, 31] was 29.5 MFI, the fluorescence intensity [6, 24] was 31.8 MFI and the fluorescence intensity [6, 25] was 30.5 MFI. The fluorescence intensity [6, 26] was 30 MFI, the fluorescence intensity [6, 27] was 32 MFI and the fluorescence intensity [6, 28] was 32.5 MFI. For the same binder, the fluorescence intensity [6, 29] was 40.5 MFI, the fluorescence intensity [7, 30] was 16 MFI and the fluorescence intensity [7, 31] was 16 MFI. It also gave a fluorescence intensity [7, 24] of 18 MFI, a fluorescence intensity [7, 25] of 16.5 MFI and a fluorescence intensity [7, 26] of 17.5 MFI. It also gave a fluorescence intensity [7, 27] of 18.2 MFI, a fluorescence intensity [7, 28] of 25 MFI and a fluorescence intensity [7, 29] of 79.2 MFI. For the same binder, the fluorescence intensity [8, 30] was 28 MFI, the fluorescence intensity [8, 31] was 27 MFI and the fluorescence intensity [8, 24] was 28 MFI. It also gave a fluorescence intensity [8, 25] of 27 MFI, a fluorescence intensity [8, 26] of 26.2 MFI and a fluorescence intensity [8, 27] of 28 MFI. It also gave a fluorescence intensity [8, 28] of 28.5 MFI, a fluorescence intensity [8, 29] of 35 MFI and a fluorescence intensity [9, 30] of 31 MFI. It also gave a fluorescence intensity [9, 31] of 29 MFI, a fluorescence intensity [9, 24] of 30.5 MFI and a fluorescence intensity [9, 25] of 29.5 MFI. For the same binder, the fluorescence intensity [9, 26] was 28.5 MFI, the fluorescence intensity [9, 27] was 30.8 MFI and the fluorescence intensity [9, 28] was 32 MFI. The fluorescence intensity [9, 29] was 53.8 MFI, the fluorescence intensity [10, 30] was 15.5 MFI and the fluorescence intensity [10, 31] was 16 MFI. It also gave a fluorescence intensity [10, 24] of 17.5 MFI, a fluorescence intensity [10, 25] of 16.5 MFI and a fluorescence intensity [10, 26] of 16 MFI. It also gave a fluorescence intensity [10, 27] of 18.5 MFI, a fluorescence intensity [10, 28] of 20 MFI and a fluorescence intensity [10, 29] of 48.5 MFI. For the same binder, the fluorescence intensity [11, 30] was 16.2 MFI, the fluorescence intensity [11, 31] was 20.5 MFI and the fluorescence intensity [11, 24] was 88 MFI. It also gave a fluorescence intensity [11, 25] of 230 MFI, a fluorescence intensity [11, 26] of 1080 MFI and a fluorescence intensity [11, 27] of 6060 MFI. It also gave a fluorescence intensity [11, 28] of 7830 MFI, a fluorescence intensity [11, 29] of 8110 MFI and a fluorescence intensity [12, 30] of 13.5 MFI. The fluorescence intensity [12, 31] was 13.5 MFI, the fluorescence intensity [12, 24] was 14 MFI and the fluorescence intensity [12, 25] was 12.5 MFI. For the same binder, the fluorescence intensity [12, 26] was 13 MFI, the fluorescence intensity [12, 27] was 14.5 MFI and the fluorescence intensity [12, 28] was 18.5 MFI. For the same binder, the fluorescence intensity [12, 29] was 52 MFI, the fluorescence intensity [13, 30] was 18 MFI and the fluorescence intensity [13, 31] was 16.5 MFI. The fluorescence intensity [13, 24] was 16 MFI, the fluorescence intensity [13, 25] was 16.8 MFI and the fluorescence intensity [13, 26] was 18 MFI. It also gave a fluorescence intensity [13, 27] of 19.5 MFI, a fluorescence intensity [13, 28] of 21.5 MFI and a fluorescence intensity [13, 29] of 35.8 MFI. For the same binder, the fluorescence intensity [14, 30] was 27.8 MFI, the fluorescence intensity [14, 31] was 28 MFI and the fluorescence intensity [14, 24] was 28.5 MFI. For the same binder, the fluorescence intensity [14, 25] was 28 MFI, the fluorescence intensity [14, 26] was 29 MFI and the fluorescence intensity [14, 27] was 33.5 MFI. It also gave a fluorescence intensity [14, 28] of 40.5 MFI, a fluorescence intensity [14, 29] of 56.8 MFI and a fluorescence intensity [15, 30] of 17.5 MFI. The fluorescence intensity [15, 31] was 18.5 MFI, the fluorescence intensity [15, 24] was 17.5 MFI and the fluorescence intensity [15, 25] was 19 MFI. It also gave a fluorescence intensity [15, 26] of 17.5 MFI, a fluorescence intensity [15, 27] of 17.2 MFI and a fluorescence intensity [15, 28] of 24.5 MFI. The fluorescence intensity [15, 29] was 132 MFI, the fluorescence intensity [16, 30] was 17.8 MFI and the fluorescence intensity [16, 31] was 18.5 MFI. The fluorescence intensity [16, 24] was 17.5 MFI, the fluorescence intensity [16, 25] was 18.2 MFI and the fluorescence intensity [16, 26] was 18 MFI. The fluorescence intensity [16, 27] was 17 MFI, the fluorescence intensity [16, 28] was 20 MFI and the fluorescence intensity [16, 29] was 20.5 MFI. For the same binder, the fluorescence intensity [17, 30] was 19.5 MFI, the fluorescence intensity [17, 31] was 19.5 MFI and the fluorescence intensity [17, 24] was 21 MFI. For the same binder, the fluorescence intensity [17, 25] was 19.5 MFI, the fluorescence intensity [17, 26] was 18.5 MFI and the fluorescence intensity [17, 27] was 18.8 MFI. The fluorescence intensity [17, 28] was 21 MFI, the fluorescence intensity [17, 29] was 28 MFI and the fluorescence intensity [18, 30] was 16.5 MFI. For the same binder, the fluorescence intensity [18, 31] was 16 MFI, the fluorescence intensity [18, 24] was 15 MFI and the fluorescence intensity [18, 25] was 15 MFI. It also gave a fluorescence intensity [18, 26] of 17 MFI, a fluorescence intensity [18, 27] of 17 MFI and a fluorescence intensity [18, 28] of 18 MFI. For the same binder, the fluorescence intensity [18, 29] was 19 MFI, the fluorescence intensity [19, 30] was 13 MFI and the fluorescence intensity [19, 31] was 12.5 MFI. For the same binder, the fluorescence intensity [19, 24] was 12.5 MFI, the fluorescence intensity [19, 25] was 12.8 MFI and the fluorescence intensity [19, 26] was 12.5 MFI. The fluorescence intensity [19, 27] was 16 MFI, the fluorescence intensity [19, 28] was 20 MFI and the fluorescence intensity [19, 29] was 78.5 MFI. For the same binder, the fluorescence intensity [20, 30] was 14.2 MFI, the fluorescence intensity [20, 31] was 13.5 MFI and the fluorescence intensity [20, 24] was 14 MFI. It also gave a fluorescence intensity [20, 25] of 12.5 MFI, a fluorescence intensity [20, 26] of 12.5 MFI and a fluorescence intensity [20, 27] of 15.5 MFI. The fluorescence intensity [20, 28] was 15 MFI, the fluorescence intensity [20, 29] was 18.5 MFI and the fluorescence intensity [21, 30] was 17.5 MFI. The fluorescence intensity [21, 31] was 16 MFI, the fluorescence intensity [21, 24] was 16 MFI and the fluorescence intensity [21, 25] was 16 MFI. For the same binder, the fluorescence intensity [21, 26] was 15.8 MFI, the fluorescence intensity [21, 27] was 16.5 MFI and the fluorescence intensity [21, 28] was 19 MFI. The fluorescence intensity [21, 29] was 34 MFI, the fluorescence intensity [22, 30] was 18 MFI and the fluorescence intensity [22, 31] was 19 MFI. For the same binder, the fluorescence intensity [22, 24] was 16.5 MFI, the fluorescence intensity [22, 25] was 17.5 MFI and the fluorescence intensity [22, 26] was 19 MFI. It also gave a fluorescence intensity [22, 27] of 18 MFI, a fluorescence intensity [22, 28] of 18.5 MFI and a fluorescence intensity [22, 29] of 33.8 MFI. The fluorescence intensity [23, 30] was 19.8 MFI, the fluorescence intensity [23, 31] was 20 MFI and the fluorescence intensity [23, 24] was 19.5 MFI. The fluorescence intensity [23, 25] was 19.5 MFI, the fluorescence intensity [23, 26] was 19 MFI and the fluorescence intensity [23, 27] was 19.2 MFI.
